Results taken from the supplement of paper PMC7889204.
Structures can show the parent of a compound that is named as a salt. The list shows a part of the results. Repeats are few or missing, and single values can be far off.

tested on: C6; experiment: cell mass (Coomassie absorbance) after combination of library compound with HMBA, relative to vehicle control (fraction); higher = more remaining cells (less growth inhibition)

SMILES | cell mass
CC(=O)O[C@]1(C(C)=O)CC[C@H]2[C@@H]3C=C(C)C4=CC(=O)CC[C@]4(C)[C@H]3CC[C@@]21C [Megestrol Acetate] + CC(=O)NCCCCCCNC(C)=O [hexamethylene bisacetamide] | 0.491
S=C(NCc1ccc2c(c1)OCO2)N1CCN(c2ncnc3c2oc2ccccc23)CC1 + CC(=O)NCCCCCCNC(C)=O [hexamethylene bisacetamide] | 0.0811
C=CC(=O)Nc1cccc(Oc2nc(Nc3ccc(N4CCN(C)CC4)cc3)ncc2Cl)c1 + CC(=O)NCCCCCCNC(C)=O [hexamethylene bisacetamide] | 0.854
C#Cc1cccc(Nc2ncnc3cc(OC)c(OCCCCCCC(=O)NO)cc23)c1 + CC(=O)NCCCCCCNC(C)=O [hexamethylene bisacetamide] | 0.555
COc1ncc(-c2ccc3nccc(-c4ccnnc4)c3c2)cc1NS(=O)(=O)c1ccc(F)cc1F + CC(=O)NCCCCCCNC(C)=O [hexamethylene bisacetamide] | 0.399
COC(=O)Nc1ccc(-c2nc(N3CCOCC3)c3cnn(C4CCN(C(=O)OC)CC4)c3n2)cc1 + CC(=O)NCCCCCCNC(C)=O [hexamethylene bisacetamide] | 0.427
Cn1c(Nc2ccc(C(F)(F)F)cc2)nc2cc(Oc3ccnc(-c4ncc(C(F)(F)F)[nH]4)c3)ccc21 + CC(=O)NCCCCCCNC(C)=O [hexamethylene bisacetamide] | 0.656
FC(F)(F)c1ccc(Nc2nc3ccc(Oc4ccnc(-c5ncc(C(F)(F)F)[nH]5)c4)cc3[nH]2)cc1 [Raf265 derivative] + CC(=O)NCCCCCCNC(C)=O [hexamethylene bisacetamide] | 0.573
CCN(CC)CCCCNc1ncc2cc(-c3cc(OC)cc(OC)c3)c(NC(=O)NC(C)(C)C)nc2n1 + CC(=O)NCCCCCCNC(C)=O [hexamethylene bisacetamide] | 0.495
O=C(c1ccc(/C=C/c2n[nH]c3ccccc23)cc1)N1CCNCC1 + CC(=O)NCCCCCCNC(C)=O [hexamethylene bisacetamide] | 0.705
N#Cc1c(O)c2c(-c3ccc(-c4ccccc4O)cc3)csc2[nH]c1=O + CC(=O)NCCCCCCNC(C)=O [hexamethylene bisacetamide] | 0.631
COCC(=O)NC/C=C/c1ccc2ncnc(Nc3ccc(Oc4ccc(C)nc4)c(C)c3)c2c1 + CC(=O)NCCCCCCNC(C)=O [hexamethylene bisacetamide] | 0.545
CCCCCCCCCCC[C@@H](C[C@@H]1OC(=O)[C@H]1CCCCCC)OC(=O)[C@H](CC(C)C)NC=O [Orlistat] + CC(=O)NCCCCCCNC(C)=O [hexamethylene bisacetamide] | 0.598
COc1cccc2cc(-c3nc([C@H]4CC[C@H](C(=O)O)CC4)n4ncnc(N)c34)[nH]c12 + CC(=O)NCCCCCCNC(C)=O [hexamethylene bisacetamide] | 0.522
O=C(NCc1ccccc1)c1csc(Nc2ccncn2)n1 [Thiazovivin] + CC(=O)NCCCCCCNC(C)=O [hexamethylene bisacetamide] | 0.458
Cc1ccc(NC(=O)c2cccc(N(C)C)c2)cc1NC(=O)c1ccc(O)cc1 + CC(=O)NCCCCCCNC(C)=O [hexamethylene bisacetamide] | 0.77

SMILES | cell mass
O=P(O)(O)C(O)(Cn1ccnc1)P(=O)(O)O [Zoledronic Acid] + CC(=O)NCCCCCCNC(C)=O [hexamethylene bisacetamide] | 0.377
CCS(=O)(=O)c1cccc(-c2cc(C(=O)NC3CCN(C)CC3)c(C)c3[nH]c4ncc(C)cc4c23)c1 + CC(=O)NCCCCCCNC(C)=O [hexamethylene bisacetamide] | 0.676
O=C1NC(=O)/C(=C/c2ccc3nccc(-c4ccncc4)c3c2)S1 + CC(=O)NCCCCCCNC(C)=O [hexamethylene bisacetamide] | 0.187
Nc1nc2[nH]cc(CCc3ccc(C(=O)N[C@@H](CCC(=O)O)C(=O)O)cc3)c2c(=O)[nH]1 + CC(=O)NCCCCCCNC(C)=O [hexamethylene bisacetamide] | 0.345
CC(C)C[C@@H](C(=O)N[C@H](C(=O)OC1CCCC1)c1ccccc1)[C@H](O)C(=O)NO + CC(=O)NCCCCCCNC(C)=O [hexamethylene bisacetamide] | 0.551
Nc1ccccc1NC(=O)c1ccc(CNc2nccc(-c3cccnc3)n2)cc1 [MGCD0103(Mocetinostat)] + CC(=O)NCCCCCCNC(C)=O [hexamethylene bisacetamide] | 0.343
COC(=O)N[C@H](C(=O)N[C@@H](Cc1ccccc1)[C@@H](O)CN(Cc1ccc(-c2ccccn2)cc1)NC(=O)[C@@H](NC(=O)OC)C(C)(C)C)C(C)(C)C [Atazanavir sulfate] + CC(=O)NCCCCCCNC(C)=O [hexamethylene bisacetamide] | 0.866
COc1ccc(-c2ccc3c(N4CCOC[C@@H]4C)nc(N4CCOC[C@@H]4C)nc3n2)cc1CO + CC(=O)NCCCCCCNC(C)=O [hexamethylene bisacetamide] | 0.723
C[C@]12CC[C@@H]3c4ccc(O)cc4C[C@@H](CCCCCCCCC[S+]([O-])CCCC(F)(F)C(F)(F)F)[C@H]3[C@@H]1CC[C@@H]2O (stereo partly specified) [Fulvestrant] + CC(=O)NCCCCCCNC(C)=O [hexamethylene bisacetamide] | 0.395
CCOc1ccccc1OCCN[C@H](C)Cc1ccc(OC)c(S(N)(=O)=O)c1 [Tamsulosin hydrochloride] + CC(=O)NCCCCCCNC(C)=O [hexamethylene bisacetamide] | 0.476
CC(=O)Nc1nc(C)c(-c2ccc(Cl)c(S(=O)(=O)NCCO)c2)s1 + CC(=O)NCCCCCCNC(C)=O [hexamethylene bisacetamide] | 0.387
CC(C)(C)c1cc(NC(=O)Nc2ccc(-c3cn4c(n3)sc3cc(OCCN5CCOCC5)ccc34)cc2)no1 + CC(=O)NCCCCCCNC(C)=O [hexamethylene bisacetamide] | 0.758
FC(F)(F)c1ccc(/C=C/c2nc(COc3ccc(CCCCn4ccnn4)cc3)co2)cc1 [Mubritinib] + CC(=O)NCCCCCCNC(C)=O [hexamethylene bisacetamide] | 0.117
CN(c1ncccc1CNc1nc(Nc2ccc3c(c2)CC(=O)N3)ncc1C(F)(F)F)S(C)(=O)=O + CC(=O)NCCCCCCNC(C)=O [hexamethylene bisacetamide] | 0.69
CNC(=O)c1ccc2cc([C@@]3(O)CCn4cncc43)ccc2c1 + CC(=O)NCCCCCCNC(C)=O [hexamethylene bisacetamide] | 0.625

Reprinted from the entries so far (2 entries):
SMILES | cell mass
CC(C)(C)c1cc(NC(=O)Nc2ccc(-c3cn4c(n3)sc3cc(OCCN5CCOCC5)ccc34)cc2)no1 + CC(=O)NCCCCCCNC(C)=O [hexamethylene bisacetamide] | 0.758
FC(F)(F)c1ccc(/C=C/c2nc(COc3ccc(CCCCn4ccnn4)cc3)co2)cc1 [Mubritinib] + CC(=O)NCCCCCCNC(C)=O [hexamethylene bisacetamide] | 0.117
